Measured values from paper PMC10344785.
Results are given in words; binding and its absence hold for the method and conditions named. In cells and extracts the contact can be indirect. Binding calls can cover weak binding; strength is not graded here.

Target: Bmal1 with deletion of the carboxy (C)-terminal transactivation domain (TAD) region (mouse)
Assay: co-IP; Bmal1 immunoprecipitates from total extracts of HEK293T cells expressing His-tagged mouse Bmal1 truncated constructs; blot for CLOCK and VPS15

- binding: binds
B1: CLOCK (in Bmal1 immunoprecipitates of Fig. 4i) (protein, UniProt O15516 1-846)
chain: MLFTVSCSKMSSIVDRDDSSIFDGLVEEDDKDKAKRVSRNKSEKKRRDQFNVLIKELGSMLPGNARKMDKSTVLQKSIDFLRKHKEITAQSDASEIRQDWKPTFLSNEEFTQLMLEALDGFFLAIMTDGSIIYVSESVTSLLEHLPSDLVDQSIFNFIPEGEHSEVYKILSTHLLESDSLTPEYLKSKNQLEFCCHMLRGTIDPKEPSTYEYVKFIGNFKSLNSVSSSAHNGFEGTIQRTHRPSYEDRVCFVATVRLATPQFIKEMCTVEEPNEEFTSRHSLEWKFLFLDHRAPPIIGYLPFEVLGTSGYDYYHVDDLENLAKCHEHLMQYGKGKSCYYRFLTKGQQWIWLQTHYYITYHQWNSRPEFIVCTHTVVSYAEVRAERRRELGIEESLPETAADKSQDSGSDNRINTVSLKEALERFDHSPTPSASSRSSRKSSHTAVSDPSSTPTKIPTDTSTPPRQHLPAHEKMVQRRSSFSSQSINSQSVGSSLTQPVMSQATNLPIPQGMSQFQFSAQLGAMQHLKDQLEQRTRMIEANIHRQQEELRKIQEQLQMVHGQGLQMFLQQSNPGLNFGSVQLSSGNSSNIQQLAPINMQGQVVPTNQIQSGMNTGHIGTTQHMIQQQTLQSTSTQSQQNVLSGHSQQTSLPSQTQSTLTAPLYNTMVISQPAAGSMVQIPSSMPQNSTQSAAVTTFTQDRQIRFSQGQQLVTKLVTAPVACGAVMVPSTMLMGQVVTAYPTFATQQQQSQTLSVTQQQQQQSSQEQQLTSVQQPSQAQLTQPPQQFLQTSRLLHGNPSTQLILSAAFPLQQSTFPQSHHQQHQSQQQQQLSRHRTDSLPDPSKVQPQ
